Data published in US20040234982A1 (published 2004).
Results are given in words; binding and its absence hold for the method and conditions named. Some binding calls cover weakened binding; strength is not graded here. Where a sequence is shown, tags or fusion partners need not be part of it.

Molecular target: Mouse UGRP1 type B polypeptide tagged with a c-myc epitope at the carboxyl-terminus, expressed in COS-1 cells (mouse) (UniProt Q920H1)
Assay: anti-c-myc immunoblot of COS-1 cell lysate and conditioned medium, non-reducing vs reducing SDS-PAGE; homodimer

B1: Mouse UGRP1 type B polypeptide tagged with a c-myc epitope at the carboxyl-terminus, expressed in COS-1 cells (protein, UniProt Q920H1-3 22-113, looked up, not shown: small tags and cut ends)
chain: LLINRLPVVDKLPVPLDDIIPSFDPLKMLLKTLGISVEHLVTGLKKCVDELGPEASEAVKKLLVIIICSYFPGRSLCYVNNLPSFEALSHLV
binding: binds
